The record followed here is PMC10958042.

No constants are given. Whether binding was seen depends on the method and setting. Binding seen in cells or lysates may run through a third protein. Some results given as binding are weak or reduced against the parent protein; the word gives no strength. Sequences can lack the tags named with a protein.

What all share (assay): co-IP; LUMIER luminescence-based co-immunoprecipitation: Protein A-ATGL variant and firefly-luciferase partner co-expressed in HEK293T, SDS-free RIPA2 lysate precipitated in IgG-coated plates 2 h at 4 °C, luminescence read; log2 fold change against wild-type ATGL, two experiments in triplicate
The target of experiment [1] is T1, Protein A-ATGL P103K (human) (UniProt Q96AD5).
T1 sequence: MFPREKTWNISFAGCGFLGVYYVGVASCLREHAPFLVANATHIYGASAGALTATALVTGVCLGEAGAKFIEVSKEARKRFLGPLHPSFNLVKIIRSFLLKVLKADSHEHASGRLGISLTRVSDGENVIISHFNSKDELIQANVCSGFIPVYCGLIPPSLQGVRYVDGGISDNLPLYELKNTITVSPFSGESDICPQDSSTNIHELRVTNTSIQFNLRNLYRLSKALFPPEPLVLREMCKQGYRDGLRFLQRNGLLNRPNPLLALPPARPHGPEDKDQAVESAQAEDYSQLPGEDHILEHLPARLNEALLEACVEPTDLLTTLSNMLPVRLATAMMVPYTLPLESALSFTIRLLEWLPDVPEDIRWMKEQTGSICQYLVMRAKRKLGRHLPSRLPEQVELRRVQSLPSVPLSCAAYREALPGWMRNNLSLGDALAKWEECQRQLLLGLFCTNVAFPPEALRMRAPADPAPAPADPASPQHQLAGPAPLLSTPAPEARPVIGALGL

Experiment [2] concerns the target T2, Protein A-ATGL wild type (human) (human) (UniProt Q96AD5).
T2 sequence: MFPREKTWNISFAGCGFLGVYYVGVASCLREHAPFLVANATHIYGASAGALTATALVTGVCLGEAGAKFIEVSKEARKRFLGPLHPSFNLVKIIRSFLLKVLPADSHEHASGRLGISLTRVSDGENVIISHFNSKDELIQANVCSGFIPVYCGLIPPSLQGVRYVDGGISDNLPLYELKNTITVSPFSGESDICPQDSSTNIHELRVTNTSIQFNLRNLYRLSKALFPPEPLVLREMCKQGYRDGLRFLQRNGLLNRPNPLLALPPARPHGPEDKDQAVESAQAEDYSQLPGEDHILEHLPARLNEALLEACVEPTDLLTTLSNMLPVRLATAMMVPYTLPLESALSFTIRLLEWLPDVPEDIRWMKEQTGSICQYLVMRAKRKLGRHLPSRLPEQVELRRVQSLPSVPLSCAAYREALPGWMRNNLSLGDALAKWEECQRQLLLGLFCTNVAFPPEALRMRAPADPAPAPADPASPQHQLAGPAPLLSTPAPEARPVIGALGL

Experiment [3] addresses T3, Protein A-ATGL L159A (human) (UniProt Q96AD5).
T3 sequence: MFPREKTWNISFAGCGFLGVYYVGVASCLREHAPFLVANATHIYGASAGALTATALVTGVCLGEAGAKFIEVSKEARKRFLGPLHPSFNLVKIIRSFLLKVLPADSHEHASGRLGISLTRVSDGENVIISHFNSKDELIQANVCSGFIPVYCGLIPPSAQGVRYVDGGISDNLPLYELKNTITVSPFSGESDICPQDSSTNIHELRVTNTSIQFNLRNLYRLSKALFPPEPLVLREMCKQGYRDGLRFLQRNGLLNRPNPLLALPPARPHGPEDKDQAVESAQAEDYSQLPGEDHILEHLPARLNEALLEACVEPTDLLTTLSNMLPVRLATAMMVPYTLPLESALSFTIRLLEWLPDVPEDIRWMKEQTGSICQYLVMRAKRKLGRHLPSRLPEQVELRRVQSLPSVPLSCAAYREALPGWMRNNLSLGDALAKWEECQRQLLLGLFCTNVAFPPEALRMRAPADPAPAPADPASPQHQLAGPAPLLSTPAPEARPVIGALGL

Experiment [4] concerns the target T4, Protein A-ATGL L102K (human) (UniProt Q96AD5).
T4 sequence: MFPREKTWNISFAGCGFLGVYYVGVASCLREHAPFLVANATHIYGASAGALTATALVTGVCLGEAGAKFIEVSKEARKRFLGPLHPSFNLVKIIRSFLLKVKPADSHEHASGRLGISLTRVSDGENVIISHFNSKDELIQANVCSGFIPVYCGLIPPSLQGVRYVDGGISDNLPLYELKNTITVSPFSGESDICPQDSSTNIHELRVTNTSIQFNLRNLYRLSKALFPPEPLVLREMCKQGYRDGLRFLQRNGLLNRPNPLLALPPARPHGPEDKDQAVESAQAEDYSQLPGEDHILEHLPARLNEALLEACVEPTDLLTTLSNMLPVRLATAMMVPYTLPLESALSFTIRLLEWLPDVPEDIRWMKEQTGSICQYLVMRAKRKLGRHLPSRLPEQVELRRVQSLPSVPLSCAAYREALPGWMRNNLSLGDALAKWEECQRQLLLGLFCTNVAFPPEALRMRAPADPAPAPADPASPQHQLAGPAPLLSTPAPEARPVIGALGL

B1: CIDEC wild type, firefly-luciferase fusion (protein, UniProt Q96AQ7 1-238)
chain: MEYAMKSLSLLYPKSLSRHVSVRTSVVTQQLLSEPSPKAPRARPCRVSTADRSVRKGIMAYSLEDLLLKVRDTLMLADKPFFLVLEEDGTTVETEEYFQALAGDTVFMVLQKGQKWQPPSEQGTRHPLSLSHKPAKKIDVARVTFDLYKLNPQDFIGCLNVKATFYDTYSLSYDLHCCGAKRIMKEAFRWALFSMQATGHVLLGTSCYLQQLLDATEEGQPPKGKASSLIPTCLKILQ
In the case of B1, the binding entry in experiment [1], in experiment [2], in experiment [3] and in experiment [4] was “binds” throughout.

B2: CGI-58 wild type, firefly-luciferase fusion (protein, UniProt Q8WTS1 1-349)
chain: MAAEEEEVDSADTGERSGWLTGWLPTWCPTSISHLKEAEEKMLKCVPCTYKKEPVRISNGNKIWTLKFSHNISNKTPLVLLHGFGGGLGLWALNFGDLCTNRPVYAFDLLGFGRSSRPRFDSDAEEVENQFVESIEEWRCALGLDKMILLGHNLGGFLAAAYSLKYPSRVNHLILVEPWGFPERPDLADQDRPIPVWIRALGAALTPFNPLAGLRIAGPFGLSLVQRLRPDFKRKYSSMFEDDTVTEYIYHCNVQTPSGETAFKNMTIPYGWAKRPMLQRIGKMHPDIPVSVIFGARSCIDGNSGTSIQSLRPHSYVKTIAILGAGHYVYADQPEEFNQKVKEICDTVD
On to B2, for which the binding entry in experiment [1], in experiment [2] and in experiment [4] was “binds” throughout.

B3: murine Plin1 wild type, firefly-luciferase fusion (protein, UniProt Q8CGN5 1-517)
chain: MSMNKGPTLLDGDLPEQENVLQRVLQLPVVSGTCECFQKTYNSTKEAHPLVASVCNAYEKGVQGASNLAAWSMEPVVRRLSTQFTAANELACRGLDHLEEKIPALQYPPEKIASELKGTISTRLRSARNSISVPIASTSDKVLGATLAGCELALGMAKETAEYAANTRVGRLASGGADLALGSIEKVVEFLLPPDKESAPSSGRQRTQKAPKAKPSLVRRVSTLANTLSRHTMQTTAWALKQGHSLAMWIPGVAPLSSLAQWGASAAMQVVSRRQSEVRVPWLHNLAASQDESHDDQTDTEGEETDDEEEEEESEAEENVLREVTALPNPRGLLGGVVHTVQNTLRNTISAVTWAPAAVLGTVGRILHLTPAQAVSSTKGRAMSLSDALKGVTDNVVDTVVHYVPLPRLSLMEPESEFRDIDNPSAEAERKGSGARPASPESTPRPGQPRGSLRSVRGLSAPSCPGLDDKTEASARPGFLAMPREKPARRVSDSFFRPSVMEPILGRAQYSQLRKKS
B3: the binding entry in experiment [2] and in experiment [4] was “binds” throughout.

B4: G0S2 wild type, firefly-luciferase fusion (protein, UniProt P27469 1-103)
chain: METVQELIPLAKEMMAQKRKGKMVKLYVLGSVLALFGVVLGLMETVCSPFTAARRLRDQEAAVAELQAALERQALQKQALQEKGKQQDTVLGGRALSNRQHAS
For B4, the binding result in experiment [1] and in experiment [2] was “binds” each time.

B5: murine Plin5 wild type, firefly-luciferase fusion (protein, UniProt Q8BVZ1 1-463)
chain: MDQRGEDTTLAPHSRMSGDQTAQDPGSSLGELDQQNVVNRVVALPLVKATCTAVSSAYNSAKDRHPLLGSACRLAEHCVCSVTTCALDHAQPLLEHLQPQLATVNDLACRGLDKLEEKLPFLQQPSDMVVTSAKDTVAKSVTGMVDLAQRGRRWSGELRRSMSQAMDMVLGKSEKLVDRFLPMTEAELAVLAAEAEGPEVGTVEEQRQQQGYFVRLGSLSARLRHLAYEHSLGKLRQSKHRTQEMLAQLQETLELIQHMQRGASPSPTFHPPKTQELWGSWSPCLENGRSHSEVELETLALSRSLTLELQNAVDALAGCVRGLPPSAQAKVAEVQRSVDALQATFADAHCLGDVAPTALAEGRGSVARAHACVDEFLDLVLRAMPLPWLVGPFAPILVEQSEPLINLATCVDEVVGDPDPRWAHMDWPAQKRAWEAESADPGGQEAEPPRGQGKHTMMPELDF
For B5, the binding result in experiment [1], in experiment [2] and in experiment [4] was “binds” throughout.
